PubChem BioAssay AID1259308 | NCATS, 2017
Screen: 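Genes whose loss raises luciferase production in HEK293 cells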 (primary screen). System: human HEK293 embryonic kidney cells stably expressing firefly luciferase (HEK-CMV-Luc2-Hygro). Reagent: single siRNA against human genes, 0.8 pmol siRNA per well. Time to read-out: 72 h. Read-out: 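Reporter luminescence and viable-cell signal on separate replicate plates, given as percent of non-targeting control and median/MAD z-scores, plus per-cell luciferase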. Reading the numbers: total luciferase, z-score: higher = more reporter protein produced. Call rule: 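Active when the median/MAD z-score for overall luciferase is greater than 3; a gene was taken forward for validation with new siRNAs if at least two of its three siRNAs passed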. Meaning of the calls: active = raised luciferase; inactive = no rise.
In all, the deposit lists about 59,000 reagents; below is a part drawn at random. Over the whole deposit, about 1,510 (2.6%) are marked active. 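Calls use total luciferase alone and ignore viability, so some active siRNAs may act by altering cell number.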 The numbers tell different reagents against one gene apart. Further read-outs or replicates are left out here. Reagent sequences are not shown.

total luciferase, z-score, by gene and reagent
SPATA9 (spermatogenesis associated 9): #1 0.704 inactive; #2 0.721 inactive; #3 0.42 inactive
TMEM207 (transmembrane protein 207): #1 0.375 inactive; #2 0.885 inactive; #3 -0.716 inactive
IFT57 (intraflagellar transport 57): #1 -0.762 inactive; #2 -1.59 inactive; #3 0.218 inactive
ABI3 (ABI family member 3): #1 -0.393 inactive; #2 0.122 inactive; #3 -0.857 inactive
CGAS (cyclic GMP-AMP synthase): #1 1.35 inactive; #2 -0.0794 inactive; #3 -0.293 inactive
TAMM41: #1 1.53 inactive; #2 0.479 inactive; #3 0.536 inactive
USE1 (unconventional SNARE in the ER 1): #1 -1.44 inactive; #2 0.468 inactive; #3 1.32 inactive
HACD1 (3-hydroxyacyl-CoA dehydratase 1): #1 0.718 inactive; #2 -0.911 inactive; #3 1.33 inactive
CTRL (chymotrypsin like): #1 0.297 inactive; #2 -0.481 inactive; #3 3.1 active
CAMTA2 (calmodulin binding transcription activator 2): #1 1.04 inactive; #2 -1.42 inactive; #3 -1.93 inactive
ZNF304 (zinc finger protein 304): #1 -0.24 inactive; #2 -0.129 inactive; #3 0.0803 inactive
LINC00869 (long independently transcribed non-coding RNA 869): #1 -0.119 inactive; #2 -0.308 inactive; #3 -0.0867 inactive
SYNE3 (spectrin repeat containing nuclear envelope family member 3): #1 -0.331 inactive; #2 2.9 inactive; #3 1.94 inactive
TREML1 (triggering receptor expressed on myeloid cells like 1): #1 -0.0996 inactive; #2 -2.19 inactive; #3 1.46 inactive
ISG20 (interferon stimulated exonuclease gene 20): #1 -0.874 inactive; #2 0.24 inactive; #3 0.397 inactive
CCN1 (cellular communication network factor 1): #1 2.4 inactive; #2 0.85 inactive; #3 0.33 inactive
MORN5 (MORN repeat containing 5): #1 0.126 inactive; #2 -0.378 inactive; #3 -1.54 inactive
FAM78A (family with sequence similarity 78 member A): #1 -1.23 inactive; #2 0.891 inactive; #3 -0.464 inactive
OSGIN2 (oxidative stress induced growth inhibitor family member 2): #1 -0.553 inactive; #2 -0.617 inactive; #3 -0.374 inactive

7 entries from above, reformatted.
{"gene":"CAMTA2 (calmodulin binding transcription activator 2)","siRNA no.":1,"total luciferase, z-score":1.04,"activity call":"inactive"}
{"gene":"CAMTA2 (calmodulin binding transcription activator 2)","siRNA no.":2,"total luciferase, z-score":-1.42,"activity call":"inactive"}
{"gene":"CAMTA2 (calmodulin binding transcription activator 2)","siRNA no.":3,"total luciferase, z-score":-1.93,"activity call":"inactive"}
{"gene":"ZNF304 (zinc finger protein 304)","siRNA no.":1,"total luciferase, z-score":-0.24,"activity call":"inactive"}
{"gene":"ZNF304 (zinc finger protein 304)","siRNA no.":2,"total luciferase, z-score":-0.129,"activity call":"inactive"}
{"gene":"ZNF304 (zinc finger protein 304)","siRNA no.":3,"total luciferase, z-score":0.0803,"activity call":"inactive"}
{"gene":"LINC00869 (long independently transcribed non-coding RNA 869)","siRNA no.":1,"total luciferase, z-score":-0.119,"activity call":"inactive"}
